In PubChem BioAssay AID504444 (National Center for Advancing Translational Sciences (NCATS), 2011):
The campaign covered roughly 360,000 compounds. About 7,500 (2.1%) were called active. The shares of active, inactive and inconclusive entries below differ from those in the screen. The call rests on the fitted dose curve; in most records, active means well fitted inhibition curve with a large enough effect; inconclusive means small, poorly fitted or top-dose-only effect, or effect the other way; inactive means flat fitted curve, though single readings scatter. Potencies of inconclusive entries are doubtful fits and often do not repeat.

Test: Nrf2 qHTS screen for inhibitors; further: nearly all actives have a fitted effect of over 60% in size
Settings: A549 ARE-Fluc reporter, luciferase luminescence, 18-24 h; series mostly up to 46 µM
Outline: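 Nrf2 function is reported as luminescence of an ARE-controlled luciferase in A549 cells. Compounds were tested at several concentrations, and a CellTiter-Fluor read on the same wells flagged cytotoxicity.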
Potency means the concentration at half of the fitted maximal effect.

SMILES	Potency
Cn1nc(C(=O)NCC2COc3ccccc3O2)c2ccccc2c1=O (stereo not given)	inconclusive: 20.6 µM [falling, single point]
COc1ccc(N2CCN(S(=O)(=O)c3ccc4c(c3)C(C(C)C)C(=O)N4)CC2)cc1 (stereo not given)	inconclusive: 9.2 µM [falling, partial curve, poor fit]
Cc1nc2cc(-c3cccc(F)c3)nn2c(C)c1CCC(=O)NCCc1ccccc1	inconclusive: 2.59 µM [falling, full curve]
CCOC(=O)Nc1ccc(S(=O)(=O)NCCCN2CCOCC2)cc1	inconclusive: 13 µM [falling, partial curve, poor fit]
CC(OC(=O)c1ccc(O)cc1)C(=O)Nc1cc(C(F)(F)F)ccc1Cl (stereo not given)	inconclusive: 23.1 µM [falling, single point]
CCCc1nnc2n1N=C(c1ccc(C)cc1)CS2	inactive
C#Cc1ccc([C@@H]2C=C(C(=O)OCC=C)O[C@H](OCc3ccc(CO)cc3)C2)cc1	inactive
Cc1ccc(C)c(-n2[nH]c3c4c(ccc3c2=O)C(=O)c2ccccc2C4=O)c1	active: 23.1 µM
CCCOc1ccc(C(=O)Nc2ccc(NC(=O)c3cccs3)cc2)cc1	inactive
Cn1c(=O)c2sccc2n2c(CCCC(=O)Nc3ccc(Oc4ccccc4)cc3)nnc12	inconclusive: 32.6 µM [falling, single point]
O=C1CSC(c2cn(-c3ccccc3)nc2-c2ccccc2)N1Cc1ccco1 (stereo not given)	inactive
O=C(Nc1ccc(-c2ccco2)cc1)C1CCCN(Cc2ccc(CO)o2)C1 (stereo not given)	inconclusive: 0.184 µM [activator, partial curve]
COC(=O)CSc1nnc(COc2cccc3ccccc23)o1	inactive
O=C(Cc1ccccc1)Nc1ccc(-c2nnc(-c3ccco3)o2)cc1	inactive
CCn1c(=O)cc(OCC(=O)NC(C)c2ccc3c(c2)OCCO3)c2ccccc21 (stereo not given)	inconclusive: 20.6 µM [falling, partial curve, poor fit]
O=C(c1ccc2ccccc2c1)N1CCN(c2ccccc2)CC1	inconclusive: 4.11 µM [activator, full curve, poor fit]
CCOC(=O)C1(Cc2cccc(Cl)c2)CCCN(C(=O)C(C)(C)C)C1 (stereo not given)	inconclusive: 29.1 µM [falling, single point]
COc1ccc(S(=O)(=O)N2CCN(C(=O)CN3C(=O)NC(C)(c4ccc5ccccc5c4)C3=O)CC2)cc1 (stereo not given)	inconclusive: 32.6 µM [falling, partial curve, poor fit]
Cc1nc(NCCCN2CCOCC2)c2cnn(-c3ccccc3)c2n1	inconclusive: 20.6 µM [activator, single point]
COc1c(C(=O)Nc2nccs2)ccc2ccccc12	inconclusive: 1.3 µM [activator, full curve]
COc1cc(-c2cccc([C@H]3[C@@H]4C=CC[C@@H](C)[C@@H]4C(=O)N3Cc3ccccc3)c2)cc(OC)c1OC	inconclusive: 18.4 µM [falling, single point]
Cc1nnc(N2CCc3ccccc3C2)[nH]c1=O	inconclusive: 29.1 µM [activator, partial curve, poor fit]

SMILES	Potency
Cc1cccc(NC(=O)C2CC(=O)N(Cc3ccccc3)C2)n1 (stereo not given)	inactive
CCCC(=O)NC(c1cccs1)c1cc(Cl)c2cccnc2c1O (stereo not given)	active: 5.17 µM
CCC(C)c1ccccc1NC(=O)COC(=O)c1ccc2c(c1)S(=O)(=O)c1ccccc1C2=O (stereo not given)	inactive
N#C/C(=N\Nc1ccc([N+](=O)[O-])cc1)C(=N)N1CCOCC1	inconclusive: 5.8 µM [activator, full curve]
CC(=O)c1cc(CC=C(C)C)c(O)c(CC=C(C)C)c1O	inactive
O=C(/C=C\Nc1ccccn1)c1ccc(Cl)cc1	inconclusive: 1.03 µM [activator, full curve, poor fit]
c1ccc(-c2ccc(-c3ccccn3)s2)nc1	inconclusive: 13 µM [activator, partial curve]
COc1ccc(-n2c(=O)cc(N3CCN(c4ccccc4)CC3)[nH]c2=O)cc1	inconclusive: 13 µM [activator, partial curve, poor fit]
CCc1cccc(NS(=O)(=O)c2ccc3c(c2)CC(C)N3C(=O)C2CC2)c1 (stereo not given)	active: 11.6 µM
COc1ccnc(CSC(N)=Nc2ccc(F)cc2)c1	inconclusive: 20.6 µM [activator, partial curve, poor fit]
O=c1[nH]c2ccc(Cl)cc2c(-c2ccccc2)c1SC(=S)N1CCOCC1	inconclusive: 29.1 µM [falling, single point]
Cc1nn(-c2ccccc2)c(N)c1N=Nc1cccnc1	inconclusive: 14.6 µM [activator, single point]
COc1ccc(C(=O)c2c(NC(C)=O)sc3c2CCN(C(=O)OC(C)(C)C)C3)cc1	inconclusive: 29.1 µM [falling, single point]
O=C(c1ccc(COc2ccc(Br)cc2)o1)N1N=C(C(F)F)CC1(O)C(F)F (stereo not given)	inconclusive: 20.6 µM [falling, partial curve]
Cc1cc(/C=C(/C#N)c2nc3ccccc3[nH]2)c(C)n1-c1cccc([N+](=O)[O-])c1	inconclusive: 16.4 µM [falling, single point]
CCOCN(C(=O)Cn1c(COC)nc2ccccc21)c1c(C)cccc1CC	inactive
CCN=C1S/C(=C\c2cn(CC(=O)NCc3ccco3)c3ccccc23)C(=O)N1CC	inconclusive: 11.6 µM [falling, partial curve, poor fit]
O=C(/C=C/c1ccc(OCCCF)cc1)N1CCOCC1	inconclusive: 16.4 µM [activator, partial curve]
CNC(=S)N(Cc1ccc(OC)cc1)C1CC(=O)N(c2ccc(Cl)cc2)C1=O (stereo not given)	inconclusive: 13 µM [falling, single point]
Fc1cccc(CSc2nnc3ccc(-c4ccncc4)nn23)c1	inconclusive: 16.4 µM [falling, partial curve, poor fit]
CCOC(=O)C1CCCN(C(=O)CCCn2c(=O)c3cccn3c3cccnc32)C1 (stereo not given)	inconclusive: 11.6 µM [falling, partial curve, poor fit]
CCSc1ccc(-c2cccc([N+](=O)[O-])c2)nn1	inconclusive: 16.4 µM [activator, partial curve]

SMILES	Potency
CCOc1ccc(CNc2ccc(S(N)(=O)=O)cc2)cc1	inconclusive: 23.1 µM [falling, single point]
O=C(c1cc2n(n1)C(C(F)(F)F)CC(c1ccc(Cl)cc1)N2)N1CCCC1 (stereo not given)	inconclusive: 9.2 µM [falling, partial curve, poor fit]
Cn1c(SCC(=O)N/N=C/C=C/c2ccccc2[N+](=O)[O-])nc2ccccc21	inconclusive: 23.1 µM [falling, single point]
CCOC(=O)Oc1c(OC)cc(C(=O)O[C@@H]2C[C@@H]3CN4CCc5c([nH]c6cc(OC)ccc56)[C@H]4C[C@@H]3[C@H](C(=O)OC)[C@H]2OC)cc1OC	inconclusive: 29.1 µM [falling, single point]
Cc1sc2c(c1C)c(=O)n(CCc1ccccc1)c(=O)n2Cc1ccc(C(C)(C)C)cc1	inactive
CCCOc1ccc(C(=O)NNC(=S)NC(=O)c2ccco2)cc1	inconclusive: 23.1 µM [falling, partial curve, poor fit]
CCn1c(CNC(=O)c2ccc(OC)cc2)nnc1SCC(=O)Nc1cc(C)ccc1C	inconclusive: 0.461 µM [falling, full curve]
Cn1c(/C(C#N)=C/c2ccccc2Br)nc2ccccc21	inconclusive: 6.51 µM [activator, single point]
COc1ccccc1NC(=O)Nc1nc(CC(=O)N2CCN(c3ccccc3OC)CC2)cs1	inconclusive: 29.1 µM [falling, single point]
COCCCNC(=O)c1cccn2c(=O)c3cc4ccccc4cc3nc12	inconclusive: 29.1 µM [falling, single point]
CC(C)CCc1noc(CN2CCN(CC(=O)NC(C)C)CC2)n1	inconclusive: 18.4 µM [falling, partial curve]
Cc1c(NC(=O)C(C)OC(=O)c2ccc([N+](=O)[O-])s2)c(=O)n(-c2ccccc2)n1C (stereo not given)	inconclusive: 29.1 µM [falling, single point]
COc1ccc(-n2ncc3c2CC(C)(C)CC3NC(=O)c2cnc(C)cn2)cc1 (stereo not given)	inactive
NC(=O)C1=C(N=C2CCCCC2)CCCC1	inactive
COc1cccc(OCc2cc(/C=N/Nc3ccc(C(=O)O)cc3)ccc2OC)c1	inconclusive: 2.91 µM [activator, partial curve]
COc1ccccc1/C=C/c1nc(C#N)c(NC2CCCCC2)o1	inconclusive: 29.1 µM [falling, single point]
CNC(=O)/C(C#N)=C/c1c(F)cccc1Cl	inconclusive: 20.6 µM [falling, partial curve, poor fit]
Cc1ccc2nc(NC(=O)COC(=O)c3ccc(Br)o3)sc2c1	inconclusive: 10.3 µM [activator, partial curve]
COc1ccc(NC(=O)CN(c2ccc(C)cc2)S(=O)(=O)c2c(C)nn(C)c2C)cc1	inactive
Cc1[nH]c2ccccc2c1-c1csc(N)n1	inconclusive: 23.1 µM [falling, single point]
COc1ccc(N=Nc2nc3ccc(Br)cc3n2C)cc1	inconclusive: 25.9 µM [activator, single point]

Given with bars between the fields: 2 of the compounds above.
SMILES | Potency
CCOC(=O)Oc1c(OC)cc(C(=O)O[C@@H]2C[C@@H]3CN4CCc5c([nH]c6cc(OC)ccc56)[C@H]4C[C@@H]3[C@H](C(=O)OC)[C@H]2OC)cc1OC | inconclusive: 29.1 µM [falling, single point]
COCCCNC(=O)c1cccn2c(=O)c3cc4ccccc4cc3nc12 | inconclusive: 29.1 µM [falling, single point]
